In PubChem BioAssay AID2685 (National Center for Advancing Translational Sciences (NCATS), 2010):
The list shows a part of the results. Shown are side measurements of this screen, not its main read-out; they come without a call. The list favours compounds with an active or inconclusive main result. Potencies come from curve fits of mixed quality, noted in brackets.

Assay: qHTS Assay for Lipid Storage Modulators in Drosophila S3 Cells;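 for cell number change: cells counted by Cell Tracker Red CMTPX staining in the red channel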
Conditions: BODIPY lipid droplet fluorescence, 18-24 h; for cell number change: measured here: cell count max response, cells fed with added oleic acid
Summary of the method: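 Drosophila S3 cells loaded with oleic acid (400 uM, as added) and compounds at several concentrations; lipid droplets imaged by 488-nm laser-scanning cytometry, 500–530 nm intensity and object ratio to cell channel. Percent activity normalized to 20 uM Triacsin C.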

[1] = measured here: lipid fluorescence (Fed channel) AC50, cells fed with added oleic acid
[2] = measured here: cell number channel AC50, cells fed with added oleic acid

| Compound | cell number change [%] | AC50 [1] | AC50 [2] |
| --- | --- | --- | --- |
| COc1ccccc1N1C(=O)[C@@H]2[C@H](C1=O)[C@H](C(=O)c1ccc(OC(C)=O)cc1)N1N=CC=C[C@@H]21 | 20.6 | 7.31 µM [rising, partial curve, poor fit] |  |
| CCOC(=O)N1CCc2c(sc(NC(=O)c3ccc(Cl)s3)c2C(N)=O)C1 | -27.6 | 20.6 µM [falling, single point] |  |
| O=S(=O)(Nc1ccc(O)c2ccccc12)c1cccs1 | 18.4 | 1.58 µM [rising, partial curve] |  |
| O=C(O)/C=C/c1ccc(S(=O)(=O)Nc2ccc(C(=O)NCC(=O)O)cc2)cc1 | -27.2 |  | 5.17 µM [rising, single point] |
| CCCCCCC(=O)Cc1cc(OC)c(OC)cc1C=C(C(=O)OCC)C(=O)OCC | 52.1 | 0.0291 µM [falling, full curve, poor fit] | 14.6 µM [rising, partial curve, poor fit] |
| Cc1nc(Cl)c(C(=O)NC(=O)Nc2cccc(C(F)(F)F)c2)c(C)c1[N+](=O)[O-] | -36.4 |  | 5.17 µM [falling, full curve, poor fit] |
| COC(=O)c1ccc(NC(=O)CSc2nnc(-c3ccncc3)n2C)cc1 | 7.93 |  | 3.66 µM [rising, partial curve, poor fit] |
| CC(C)(C)C(C(Oc1ccc(Cl)cc1)n1cncn1)n1nnnc1C(c1cccc(Cl)c1)N1CCCCC1 (stereo not drawn) | -11.7 | 32.6 µM [falling, single point] |  |
| CCCCCCCCc1nc(SC(C)C(=O)O)n[nH]1 (stereo not drawn) |  | 29.1 µM [rising, single point] |  |
| O=C(/C=C/c1ccc(F)cc1)NC(=S)NNC(=O)c1cnccn1 | 37.1 | 2.59 µM [rising, single point] | 2.06 µM [rising, partial curve] |
| Cc1ccc(OCC(=O)Nc2ccc(N3CCN(C(=O)c4ccco4)CC3)cc2)cc1C | 7.04 | 0.116 µM [rising, full curve, poor fit] |  |
| NC(=O)c1ccccc1N/C=C1\CCCCC1=O | 2.53 | 0.411 µM [falling, partial curve, poor fit] |  |
| O=C(O)CC(CP(=O)(c1ccccc1)c1ccccc1)C(=O)O (stereo not drawn) | 16.8 | 0.0058 µM [rising, full curve, poor fit] |  |
| COCCNC(=O)c1cn(C)c2ccc(S(=O)(=O)N(C)C3CCCCC3)cc2c1=O | 15.7 | 9.2 µM [rising, partial curve, poor fit] |  |
| Cc1cccc(Nc2nc(NCc3ccco3)c3ccccc3n2)c1 | -84.7 | 3.26 µM [falling, partial curve] | 8.2 µM [falling, partial curve] |
| Cc1csc(NC(=O)c2cccc(S(=O)(=O)N3CCCCC3)c2)n1 |  |  | 0.411 µM [rising, single point] |
| COc1ccccc1NC(=O)NCCCl | 25.1 | 11.6 µM [rising, partial curve, poor fit] |  |
| Cc1sc2ncnc(Sc3nnnn3-c3ccccc3)c2c1C | -7.47 | 3.26 µM [falling, full curve] | 4.61 µM [falling, single point] |
| COCCCNC(=S)N/N=C/c1ccc(N(C)C)cc1 | 39.6 |  | 6.51 µM [rising, partial curve] |

Taken from the entries so far for reference:

| Compound | cell number change [%] | AC50 [1] | AC50 [2] |
| --- | --- | --- | --- |
| COCCNC(=O)c1cn(C)c2ccc(S(=O)(=O)N(C)C3CCCCC3)cc2c1=O | 15.7 | 9.2 µM [rising, partial curve, poor fit] |  |
| Cc1cccc(Nc2nc(NCc3ccco3)c3ccccc3n2)c1 | -84.7 | 3.26 µM [falling, partial curve] | 8.2 µM [falling, partial curve] |
| Cc1csc(NC(=O)c2cccc(S(=O)(=O)N3CCCCC3)c2)n1 |  |  | 0.411 µM [rising, single point] |

(listing goes on)

| Compound | cell number change [%] | AC50 [1] | AC50 [2] |
| --- | --- | --- | --- |
| Cc1ccc2cccc(OCCOCCOc3ccccc3Br)c2n1 | 17.6 |  |  |
| CC(C)(C)c1ccc(O)c(/C=N\O)c1 | -31.2 | 29.1 µM [falling, single point] | 0.206 µM [falling, partial curve, poor fit] |
| CC(C)c1ccc(Nc2nc(Cl)nc(NCCO)n2)cc1 | -5.67 |  |  |
| CCOC(=O)N1CCC(N2CCN(S(=O)(=O)c3ccc(Cl)cc3)CC2)CC1 | -4.84 | 29.1 µM [rising, single point] | 5.8 µM [rising, single point] |
| NNC(=O)c1nc[nH]c1C(=O)Nc1ccccc1[N+](=O)[O-] |  |  | 0.82 µM [rising, full curve] |
| CCC1(c2ccc(F)cc2)NC(=O)N(CC(=O)Nc2ccc(C(N)=O)cc2)C1=O (stereo not drawn) | 1.61 | 23.1 µM [rising, partial curve, poor fit] |  |
| O=C(O)Cc1ccc2sc(-c3ccccc3)nc2c1 |  | 23.1 µM [falling, partial curve, poor fit] |  |
| COC(=O)CSc1nc(C)cc(C)n1 | 28.4 | 8.2 µM [rising, single point] |  |
| Cc1cc(OCC(=O)Nc2cc(S(=O)(=O)N3CCOCC3)ccc2N2CCCC2)ccc1C(C)C | -7 |  |  |
| Cc1onc(-c2ccccc2Cl)c1C(=O)N(C)Cc1ccccc1 | -1.42 |  | 1.64 µM [rising, partial curve, poor fit] |
| CCc1nn(CC(=O)NCCCN2CCN(C)CC2)c(=O)c2cc3occc3n12 | -11.6 | 29.1 µM [rising, single point] |  |
| Cc1cccc(-n2c(=O)[nH]c3c(C(N)=O)nc(-c4ccccc4Cl)nc32)c1 | -115 | 29.1 µM [falling, single point] | 29.1 µM [falling, partial curve] |
| CCOC(=O)C1=C(O)C(Nc2nc3ccccc3s2)(C(F)(F)F)N=C1C (stereo not drawn) | -18.3 |  |  |
| O=C(CCS(=O)(=O)c1ccccc1)Nc1ccc(-c2nc3ccccc3s2)cc1 | -26.5 | 7.31 µM [falling, partial curve] |  |
| COc1ccc(S(=O)(=O)NCC(c2ccc3c(c2)OCO3)N2CCN(c3ccccc3)CC2)cc1 (stereo not drawn) | 2.38 | 29.1 µM [falling, single point] |  |
| O=C(NNC(=O)c1cccs1)c1cccc(F)c1 | 16.7 |  | 2.06 µM [rising, partial curve, poor fit] |
| CC(=O)c1ccc(OCCCC(=O)NCCc2ccc(C(F)(F)F)cc2)cc1 |  | 25.9 µM [rising, partial curve, poor fit] | 0.651 µM [rising, single point] |
| CCOC(=O)CSc1nnc(CNc2cccc(Cl)c2)n1-c1ccccc1 | -21.6 | 1.64 µM [falling, full curve, poor fit] |  |
| CCOc1ccccc1N(CC(=O)Nc1c(C)n(C)n(-c2ccccc2)c1=O)S(=O)(=O)c1ccccc1 | 28.4 | 29.1 µM [rising, single point] |  |

| Compound | cell number change [%] | AC50 [1] | AC50 [2] |
| --- | --- | --- | --- |
| CCOc1ccc(/C=C2\CCc3ccccc3C2=O)cc1 | 2.07 |  |  |
| COc1ccc2nc(NNC(=O)C3COc4ccccc4O3)sc2c1 (stereo not drawn) | 6.59 | 3.66 µM [rising, partial curve] |  |
| Cc1nc(NCC2CCCO2)c2nnn(Cc3ccccc3)c2n1 (stereo not drawn) | -40.6 | 7.31 µM [falling, single point] |  |
| CC(C)[C@H](NS(=O)(=O)c1ccc2c(c1)OCCO2)C(=O)OCC(=O)Nc1cccc(Cl)c1Cl | 24.2 | 0.517 µM [rising, full curve] | 4.61 µM [rising, full curve, poor fit] |
| O=C(NCCC1=CCCCC1)C1CCC(=O)N(Cc2cccc(C(F)(F)F)c2)C1 (stereo not drawn) | -3.14 | 0.206 µM [falling, full curve, poor fit] |  |
| COc1cc(C(=S)N2CCCC2)ccc1OS(=O)(=O)c1ccc(NC(C)=O)cc1 | -1.97 |  | 6.51 µM [falling, single point] |
| O=C(N/N=C/C=C/c1ccco1)c1cccc([N+](=O)[O-])c1 |  | 0.58 µM [falling, full curve, poor fit] |  |
| Cn1cccc1C(=O)NC(=O)COC(=O)CNC(=O)c1ccc(Cl)cc1Cl | -30.2 | 23.1 µM [falling, partial curve, poor fit] | 6.51 µM [falling, partial curve, poor fit] |
| COc1ccc(CCC(=O)NNC(=S)Nc2cccc(C(C)=O)c2)cc1 | -7.23 |  |  |
| COC(=O)Cc1ccc(NC(=S)NC2CC2)cc1 | 0.903 | 0.731 µM [falling, full curve] |  |
| COc1cccc(C(=O)NNC(=O)C2CCCO2)c1 (stereo not drawn) | 16.7 | 2.91 µM [rising, partial curve] |  |
| COc1cc(C(=O)NC(CCSC)C(=O)OCc2cc([N+](=O)[O-])cc3c2OCOC3)cc(OC)c1OC (stereo not drawn) | 33.6 | 1.64 µM [rising, partial curve, poor fit] | 1.64 µM [rising, full curve, poor fit] |
| CC(C)(C)Cc1nnc(NC(=O)c2cc(-c3ccccc3)nc3ccccc23)s1 | 42.8 |  | 0.731 µM [rising, full curve] |
| Cc1ccccc1CS(=O)(=O)Cc1ccc(C(=O)N2CCOCC2)o1 | 9.02 | 2.59 µM [falling, full curve, poor fit] |  |
| CCCCOC(=O)Nc1ccc(S(=O)(=O)Nc2ncccn2)cc1 | -8.6 |  |  |
| COc1cc(OC)cc(C(=O)N[C@@H](CCSC)c2nc3ccccc3[nH]2)c1 | -0.311 | 1.3 µM [rising, partial curve, poor fit] | 0.82 µM [rising, partial curve] |
| CC(CC1CC(C)(C)OC1=O)C(=O)Nc1nncs1 (stereo not drawn) | -2.38 | 1.64 µM [falling, full curve] |  |
| N#C/C(=C(/O)COc1ccc(Br)cc1)c1nnc2n1CCCCC2 | -24.8 | 2.06 µM [falling, full curve] | 3.26 µM [falling, full curve, poor fit] |
| c1ccc2c(c1)CCN2CCN1CCc2ccccc21 |  | 4.61 µM [falling, single point] |  |
